PubChem BioAssay AID1468 (National Center for Advancing Translational Sciences (NCATS), 2008)
The whole screen tested about 280,000 compounds, of which about 1,100 (0.39%) were called active. All entries are inconclusive by the source's own rule. Clear calls are listed elsewhere. Calls follow the shape of the dose curve; as a rule, active = well fitted inhibition curve with a large enough effect; inconclusive = small, poorly fitted or top-dose-only effect, or effect the other way; inactive = flat fitted curve, though single readings scatter. Some of these compounds have results that are not shown, active ones among them.
Also: nearly all actives have a fitted effect of over 55% in size.
Potency is read from the fitted curve at half-maximal effect.

Amino acid sequences for entries named in this document (tags omitted). Residues count along the entry.
UniProt P10636, 561-689 P618L limits assumed: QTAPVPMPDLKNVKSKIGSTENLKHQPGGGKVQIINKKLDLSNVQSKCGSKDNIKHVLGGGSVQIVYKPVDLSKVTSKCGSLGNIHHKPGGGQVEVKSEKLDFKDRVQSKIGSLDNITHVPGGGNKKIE

The compounds below were run against Microtubule-associated protein tau (Homo sapiens) (UniProt P10636) (assay: qHTS for Inhibitors of Tau Fibril Formation, Fluorescence Polarization). Details: K18 P301L tau heparin fibrillization, Alexa594 FP, 6 h.
Text: NIH Molecular Libraries Probe Production Network [MLPCN]
NIH Chemical Genomics Center [NCGC]
Assay Provider: Carlo Ballatore, University of Pennsylvania
The microtubule-associated protein tau is an abundant protein in the axons of neurons that stabilizes microtubules. With its ability to modulate microtubule dynamics, tau contributes directly or indirectly, to key structural and regulatory cellular functions. Particularly important is the influence tau exerts on axonal transport, which allows signaling molecules, trophic factors and other essential cellular constituents to travel along the axons. Under pathological conditions, tau becomes sequestered into insoluble aggregates called neurofibrillary tangles. This phenomenon is believed to have pathological consequences by promoting axonal transport deficits that ultimately lead to synaptic dysfunction and neuronal loss. […]
For screening, 2 uL/well human K18 P301L (15 uM unlabeled and 0.24 uM Alexa 594-labeled tau final concentrations) in reagent buffer (100 mM sodium acetate pH 7) was dispensed into black solid 1536-well plates (Grenier) using a solenoid-based dispenser. […] After a 1 hr ambient incubation, the plates were read by an Envision (Perkin Elmer) to monitor Alexa 594 FP (555 nm excitation and 632 nm emission). […]
In the case of `CCN(CC)CC(C)C(C)OC(=O)C(O)(c1ccccc1)c1ccccc1` (stereo unspecified), the Potency was inconclusive: 0.224 µM.
